Laboratory results taken from publication doi:10.1101/2025.10.27.684941.
These are yes or no findings as the source states them, for the method shown. Binding seen in cells or lysates may run through a third protein. Some results given as binding are weak or reduced against the parent protein; the word gives no strength.

T1: endogenous ZO-1 (Zonula occludens protein 1) (human (endogenous in HeLa)), Q07157
T1 chain: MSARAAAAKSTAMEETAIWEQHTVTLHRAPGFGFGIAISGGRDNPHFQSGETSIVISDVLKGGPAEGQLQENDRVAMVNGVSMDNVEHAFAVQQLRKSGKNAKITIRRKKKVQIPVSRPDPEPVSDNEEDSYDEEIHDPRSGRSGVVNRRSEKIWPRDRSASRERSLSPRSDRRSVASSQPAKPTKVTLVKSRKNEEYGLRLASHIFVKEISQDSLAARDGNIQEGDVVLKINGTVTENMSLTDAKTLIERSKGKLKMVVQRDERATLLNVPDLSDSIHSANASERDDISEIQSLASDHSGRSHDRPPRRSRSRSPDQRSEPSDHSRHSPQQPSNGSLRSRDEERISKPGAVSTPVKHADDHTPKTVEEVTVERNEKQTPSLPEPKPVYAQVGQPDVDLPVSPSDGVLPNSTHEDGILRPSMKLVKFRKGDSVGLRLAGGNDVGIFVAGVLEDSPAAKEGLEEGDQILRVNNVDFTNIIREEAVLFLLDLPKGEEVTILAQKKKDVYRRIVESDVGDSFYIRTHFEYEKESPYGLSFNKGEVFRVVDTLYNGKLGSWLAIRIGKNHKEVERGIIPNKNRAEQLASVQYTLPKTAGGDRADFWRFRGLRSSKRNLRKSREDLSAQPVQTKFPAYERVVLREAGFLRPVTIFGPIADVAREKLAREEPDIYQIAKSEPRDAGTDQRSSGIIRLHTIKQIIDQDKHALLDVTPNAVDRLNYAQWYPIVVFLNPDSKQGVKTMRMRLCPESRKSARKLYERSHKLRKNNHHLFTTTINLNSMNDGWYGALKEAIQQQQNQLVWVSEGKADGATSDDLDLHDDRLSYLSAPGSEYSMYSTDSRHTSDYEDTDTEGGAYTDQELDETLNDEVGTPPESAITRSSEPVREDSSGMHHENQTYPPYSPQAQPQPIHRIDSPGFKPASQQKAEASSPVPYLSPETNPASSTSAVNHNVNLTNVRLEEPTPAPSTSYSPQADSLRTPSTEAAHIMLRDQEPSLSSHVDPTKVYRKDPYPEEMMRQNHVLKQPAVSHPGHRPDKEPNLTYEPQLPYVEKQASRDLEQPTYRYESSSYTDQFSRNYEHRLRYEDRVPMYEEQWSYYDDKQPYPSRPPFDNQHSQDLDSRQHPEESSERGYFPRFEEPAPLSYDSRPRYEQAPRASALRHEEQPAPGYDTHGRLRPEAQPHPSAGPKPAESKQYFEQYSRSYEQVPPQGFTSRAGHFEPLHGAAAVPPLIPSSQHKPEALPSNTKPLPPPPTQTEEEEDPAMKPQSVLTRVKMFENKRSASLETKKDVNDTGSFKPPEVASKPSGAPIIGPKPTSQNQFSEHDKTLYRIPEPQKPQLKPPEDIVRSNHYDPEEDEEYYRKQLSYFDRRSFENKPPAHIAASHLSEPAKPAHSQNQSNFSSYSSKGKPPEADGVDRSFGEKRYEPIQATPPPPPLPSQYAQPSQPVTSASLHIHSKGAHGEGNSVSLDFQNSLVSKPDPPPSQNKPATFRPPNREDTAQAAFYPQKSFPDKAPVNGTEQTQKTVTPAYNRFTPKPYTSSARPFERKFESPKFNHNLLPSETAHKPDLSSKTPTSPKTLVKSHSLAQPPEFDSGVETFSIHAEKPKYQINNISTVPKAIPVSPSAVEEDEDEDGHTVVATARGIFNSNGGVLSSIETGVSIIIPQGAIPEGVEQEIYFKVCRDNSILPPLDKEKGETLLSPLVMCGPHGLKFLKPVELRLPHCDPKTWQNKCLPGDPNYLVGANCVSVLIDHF


Experiments:
[1] = target: endogenous ZO-1 (Zonula occludens protein 1) (human (endogenous in HeLa)) (UniProt Q07157); assay: co-IP
[2] = target: T1, endogenous ZO-1 (Zonula occludens …); assay: co-IP; settings: remark: other sources report otherwise

Molecule	binding [1]	binding [2]
Cx36 A319T, in HeLa cells (from UniProt O54851 1-321)	binds	–
Connexin 36 (wild type), in HeLa cells, O54851 1-321 (protein) MGEWTILERLLEAAVQQHSTMIGRILLTVVVIFRILIVAIVGETVYDDEQTMFVCNTLQPGCNQACYDRAFPISHIRYWVFQIIMVCTPSLCFITYSVHQSAKQRERRYSTVFLALDRDPAESIGGPGGTGGGGSGGSKREDKKLQNAIVNGVLQNTETTSKETEPDCLEVKELTPHPSGLRTAARSKLRRQEGISRFYIIQVVFRNALEIGFLVGQYFLYGFSVPGLYECNRYPCIKEVECYVSRPTEKTVFLVFMFAVSGICVVLNLAELNHLGWRKIKLAVRGAQAKRKSVYEIRNKDLPRVSVPNFGRTQSSDSAYV	–	no binding
